## Screening data, single-dose tests

From ChEMBL document CHEMBL3988442, “University of Dundee, Small-Polar-MMV Screening Library” (2021).

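Whole-cell growth test on Mycobacterium tuberculosis, read after 4 days in a medium based on cholesterol and the lipid DPPC; the read-out is not stated. Concentration: 500 µM. Direction is inferred from retests: higher values go with more growth inhibition. Of about 18,000 compounds tested this way, about 900 (5%) reached 50% or more in at least one test.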

Results are given as percent effect.
How 0% and 100% were set is not recorded. Most values in the screen are low, and negative values occur.
Compounds were drawn at random from those tested, without regard to their results.

| Compound | percent effect |
|---|---|
| `COc1cc(CNC(=O)c2[nH]nc(C)c2Br)ccc1O` | -10.63 |
| `CC(C(N)=O)n1cccn1` (centres undefined) | 21.59 |
| `CC(CCNC(=O)Nc1ncnn1C)N1CCCCC1` (centres undefined) | 0.1349 |
| `CNC(C)CS(C)(=O)=O` (centres undefined) | 1.988 |
| `O=C1CN(C(=O)CN2CCCC2)c2ccccc2N1` | 4.197 |
| `NC1COc2ccccc21` (centres undefined) | -1.405 |
| `Cc1cc(C(=O)NCC(=O)NC2CC2)c(C)o1` | 5.383 |
| `O=C(c1ccccc1O)N1CCN2CCCCC2C1` (centres undefined) | 8.182 |
| `CO[C@H]1CNCC1NC(=O)Cc1ccc(F)cc1F` (some centres undefined) | -10.66 |
| `NC(=O)C1CCCN1C(=O)CSc1ccccc1Cl` (centres undefined) | 11.22 |
| `COCCN1CCCC(Nc2ccc(Cl)cn2)C1` (centres undefined) | 70.19 |
| `Cn1cc(CCCO)cn1` | -14.9 |
| `Cc1nnc2n1CC(NC(=O)COCC(F)(F)F)CC2` (centres undefined) | 6.714 |
| `CC(=O)N1CCc2cc(C(=O)C(C)O)ccc21` (centres undefined) | 10.44 |
| `CN(C)C(=O)C1CCCN(C(=O)c2cccnc2)C1` (centres undefined) | -16.31 |
| `CCc1nc(C)sc1CNC(=O)Cn1nc(C)cc1N` | -9.351 |
| `CCC(NC(=O)c1cccs1)c1nc(C)c[nH]1` (centres undefined) | -15.39 |
| `CC(C)NC(=O)CN1CC(Oc2ccccc2F)C1` | 16.12 |
| `Cc1ccc(CCNC(=O)NCc2cnn(C)c2)cn1` | -6.445 |
| `CNCc1cnc(C)cn1` | -1.456 |
| `CC(C)CN1CCN(c2ncccc2F)CC1` | -3.334 |
| `CS(=O)(=O)NC1(CN)CCCCC1` | 8.227 |
| `NCCC1CN(Cc2cc3ccccc3s2)CCO1` (centres undefined) | 61.99 |
| `Cc1n[nH]c(C)c1CN1CCC2(CCNCC2)C1` | -0.1219 |
| `CCc1ccc(C(N)COC)o1` (centres undefined) | 3.976 |
| `NC(=O)C1(NCc2ccccc2F)CCOCC1` | -12.15 |
| `CCCOCC(=O)Nc1ncccc1NC(C)=O` | 11.66 |
| `Cc1ccc(C(=O)N(C)CC2(C)CCOCC2)cn1` | -3.272 |
| `CN(C(=O)CSc1cnn[nH]1)c1ccccc1` | 8.956 |
| `CCn1ccc(CN2CCOCS2(=O)=O)n1` | -13.61 |
| `Cc1ccnc(SCC(N)=O)c1C#N` | -5.126 |
| `Cc1noc(Cn2cc(S(=O)(=O)N(C)C)ccc2=O)n1` | -12.53 |
| `Cc1cccc(CN(CCO)Cc2nccn2C)n1` | 1.768 |
| `COc1ccccc1[C@@H]1C[C@H]1N` | -9.543 |
| `NS(=O)(=O)c1cccc2c1CCCN2Cc1nccs1` | 9.715 |
| `Cc1ccc(C)c(NC(=O)CCN2CCCC2)c1` | 19.56 |
| `CN(C(=O)c1n[nH]c2ccccc12)[C@H]1COC[C@@H]1O` | 4.96 |
| `CC(C#N)N1CCC(CNS(C)(=O)=O)CC1` (centres undefined) | -1.976 |
| `COc1ccccc1C(=O)N(C)C1CCN(C)CC1` | 1.842 |
| `Cn1cccc1CN(CCC#N)CCN1CCOCC1` | 27.44 |
| `CCC(C)NC(=O)CSc1nc2ncc(Cl)cc2[nH]1` (centres undefined) | 1.328 |
| `CCCOc1cc(CNC(=O)c2nccn2C)ccn1` | 63.92 |
| `CC(C)COCC(O)CNC(=O)C1(C#N)CCCC1` (centres undefined) | 13.63 |
| `CC(C)C(N)C(=O)N(C)C` (centres undefined) | -10.48 |
| `CC(O)CNC(=O)Nc1ccccc1N1CCCC1` (centres undefined) | -12.31 |
| `CCOc1ccc2[nH]c(C(C)O)nc2c1` (centres undefined) | -7.506 |
| `Cc1cccc(OCC(O)Cn2ccnc2C)c1` (centres undefined) | -27.79 |
| `Cc1nccn1CCNC(=O)C(C)(C)C` | -7.002 |
| `CN(CC1CC(O)C1)C(=O)c1ccc2ccccc2n1` (centres undefined) | 7.472 |
| `CCN1CCCC(CNC(=O)Nc2cc(C)nn2C)C1` (centres undefined) | -4.161 |
| `OCc1cc(Br)cs1` | 16.19 |
| `CCCC(=O)N(C)CCC(N)C(C)C` (centres undefined) | 1.35 |
| `OC1CCN(CCn2cccn2)CC1` | -26.5 |
| `CC(C)[C@H](N)C(=O)N1CCN(C2CC2)C(=O)C1` | -1.565 |
| `Cn1nc(-c2cc(F)cc(F)c2)cc1N` | 15.47 |
| `COC[C@]1(O)CCN(Cc2ncc[nH]2)CC1(C)C` | 4.61 |
| `CCN1CCCN(C(=O)c2ccc(C)c(F)c2)CC1` | -6.977 |
| `O=C(COC(=O)C1=COCCO1)Nc1ccc(I)cc1` | 3.323 |
| `CC(C)(C)CN(CCC#N)CC(=O)N1CCNC1=O` | 7.089 |
| `CCn1cc(CNC(=O)[C@H](CCSC)NC(C)=O)cn1` | 6.246 |
| `Cc1ncn(CC(=O)N2CCN3CCCC3C2)c1C` (centres undefined) | -29.27 |
| `CN1CCCN(C(=O)NC2CCCC2)CC1` | 15.27 |
| `CNC(=O)NC(=O)CCN1CCCC(C)C1` (centres undefined) | 17.68 |
| `O=C(c1c[nH]nc1C1CCCNC1)N1CCOCC1` (centres undefined) | -8.883 |
| `NCCNc1nccc(C(F)(F)F)n1` | 4.024 |
| `Cc1cc(NC2CC2)n2ncnc2n1` | -0.4792 |
| `O=C(NC1CCS(=O)(=O)C1)c1cc(Br)c[nH]1` (centres undefined) | -4.483 |
| `CCCNC(=O)C(C)Sc1nnc(C)s1` (centres undefined) | 9.691 |
| `CN(C)Cc1ccc(CN)s1` | -4.696 |
| `Cc1nnnn1CCC(=O)NC(C)Cn1cccn1` (centres undefined) | 6.159 |
| `O=C(Cc1ccc(Cl)cc1Br)NC(CO)CO` | 4.397 |
| `COc1ccc(CCN)cc1F` | 54.86 |
| `CSc1ncccc1C(=O)N1CCC(CS(N)(=O)=O)C1` (centres undefined) | 4.495 |
| `Cn1cc(I)c(CN)n1` | 2.828 |
| `N#Cc1ccccn1` | 12.45 |
| `CC1CCCCN1S(=O)(=O)N1CCN(C)CC1` (centres undefined) | 8.764 |
| `CCc1ccsc1CNC(=O)CSc1nc(C)n[nH]1` | 0.4555 |
| `CNC(=O)c1cc(=O)[nH]c2c(Br)cccc12` | -2.388 |
| `CC(Oc1ccc(Cl)cc1)C(=O)N(C)C` (centres undefined) | 40.87 |
| `O=C1CCC(C(=O)Nc2ccc3c(c2)CCC3)=NN1` | -3.393 |
| `CC(C)CCC(=O)NCC(=O)NCC(O)C(C)(C)C` (centres undefined) | 0.3511 |
| `COC(=O)c1cnc(OC)cn1` | -7.267 |
| `Cc1nonc1CC(=O)N[C@@H]1COCC[C@H]1O` | -5.595 |
| `Cc1ccc(F)cc1CC(=O)N1CC[C@H](O)[C@@H](O)C1` | 2.414 |
| `CCN(CC1CCCCO1)C(=O)c1cc(Cl)c[nH]c1=O` (centres undefined) | -4.324 |
| `CN(C)[C@@H]1CN(C(=O)c2nccn2C)CC[C@@H]1CO` | 6.723 |
| `Cc1cnn(CCNCc2cccc(C(N)=O)c2)c1` | 13.3 |
| `CC(C)(CNC(=O)c1nccnc1N)N1CCOCC1` | 8.478 |
| `CN(C)[C@H]1CN(Cc2cccc(OCCO)c2)C[C@@H]1O` | 0.04827 |
| `CCOc1cc(C(=O)NCc2ncc[nH]2)cc(Cl)c1O` | -1.098 |
| `COCCN1CCN(CCc2ccccn2)CC1C` (centres undefined) | -1.992 |
| `NC(=O)c1cccnc1NCC1CNCCOC1` (centres undefined) | 9.695 |
| `CCC[C@H]1CN(C(=O)c2ccc(CO)o2)C[C@@H]1N(C)C` | 2.335 |
| `CC(CC#N)N(C)C(=O)c1ccc(N2CCCC2)nc1` (centres undefined) | -6.678 |

Once more, the final 9:

Compound,percent effect
CN(C)[C@@H]1CN(C(=O)c2nccn2C)CC[C@@H]1CO,6.723
Cc1cnn(CCNCc2cccc(C(N)=O)c2)c1,13.3
CC(C)(CNC(=O)c1nccnc1N)N1CCOCC1,8.478
CN(C)[C@H]1CN(Cc2cccc(OCCO)c2)C[C@@H]1O,0.04827
CCOc1cc(C(=O)NCc2ncc[nH]2)cc(Cl)c1O,-1.098
COCCN1CCN(CCc2ccccn2)CC1C (centres undefined),-1.992
NC(=O)c1cccnc1NCC1CNCCOC1 (centres undefined),9.695
CCC[C@H]1CN(C(=O)c2ccc(CO)o2)C[C@@H]1N(C)C,2.335
CC(CC#N)N(C)C(=O)c1ccc(N2CCCC2)nc1 (centres undefined),-6.678